We go through one molecule from publication PMC3398031.

Chains of the proteins cited; added tags and fusions are not shown.
UniProt P61073: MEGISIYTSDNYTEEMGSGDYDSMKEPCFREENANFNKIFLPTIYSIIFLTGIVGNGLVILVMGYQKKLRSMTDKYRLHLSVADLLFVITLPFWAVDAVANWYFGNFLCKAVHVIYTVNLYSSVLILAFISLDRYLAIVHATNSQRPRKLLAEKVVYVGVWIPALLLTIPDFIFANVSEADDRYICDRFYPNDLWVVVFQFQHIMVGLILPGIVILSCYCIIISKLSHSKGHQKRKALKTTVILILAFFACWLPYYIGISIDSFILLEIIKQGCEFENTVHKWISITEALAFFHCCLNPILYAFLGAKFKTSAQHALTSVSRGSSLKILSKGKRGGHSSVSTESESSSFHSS

No constants are given. Whether binding was seen depends on the method and setting. Binding seen in cells or lysates may run through a third protein. Some results given as binding are weak or reduced against the parent protein; the word gives no strength. Where a sequence is shown, tags or fusion partners need not be part of it.

This assay deals with CXCR4 (construct of the co-immunoprecipitation in Figure 2c) (UniProt P61073). Description: co-IP; HEK293 cells, 48 h after transfection, lysed in RIPA buffer; receptor precipitated (HA-tagged CCR5; the reciprocal was also done), FLAG-tagged DRiP78 detected by blot.

B1: FLAG-tagged DRiP78 (protein, UniProt Q6Y2X3 1-702)
chain: MAQKHPGERGLYGAHHSGGASLRTLGPSVDPEIPSFSGLRDSAGTAPNGTRCLTEHSGPKHTQHPNPAHWLDPSHGPPGGPGPPRDAEDPDQSETSSEEESGVDQELSKENETGNQKDGNSFLSIPSACNCQGTPGIPEGPYSEGGNGSSSNFCHHCTSPALGEDELEEEYDDEESLKFPSDFSRVSSGKKPPSRRQRHRFPTKEDTREGGRRDPRSPGRHRLGRKRSQADKRKGLGLWGAEELCQLGQAGFWWLIELLVLVGEYVETCGHLIYACRQLKSSDLDLFRVWMGVWTGRLGGWAQVMFQFLSQGFYCGVGLFTRFLKLLGALLLLALALFLGFLQLGWRFLVGLGDRLGWRDKATWLFSWLDSPALQRCLTLLRDSRPWQRLVRIVQWGWLELPWVKQNINRQGNAPVASGRYCQPEEEVARLLTMAGVPEDELNPFHVLGVEATASDVELKKAYRQLAVMVHPDKNHHPRAEEAFKVLRAAWDIVSNAEKRKEYEMKRMAENELSRSVNEFLSKLQDDLKEAMNTMMCSRCQGKHRRFEMDREPKSARYCAECNRLHPAEEGDFWAESSMLGLKITYFALMDGKVYDITEWAGCQRVGISPDTHRVPYHISFGSRIPGTRGRQRATPDAPPADLQDFLSRIFQVPPGQMPNGNFFAAPQPAPGAAAASKPNSTVPKGEAKPKRRKKVRRPFQR
B1: the binding result is “binds”.
